Test: Chemoselectivity of reaction with N-Ac-Cys versus N-Ac-Lys and N-Ac-Tyr (LC-MS)
Type: physicochemical

SMILES	chemoselectivity for the thiol group of cysteine (equimolar N-acetyl-L-lysine, N-acetyl-L-tyrosine, N-acetyl-L-cysteine, PBS buffer/DMSO, 1 hour)	chemoselectivity for conjugate with N-Ac-Cys (equimolar N-Ac-Cys and N-Ac-Lys, or N-Ac-Cys, N-Ac-Tyr and N-Ac-Lys (Scheme 3))
C#CCOCCOCCOCCNC(=O)c1cc(C(=O)/C=C/C(N)=O)cc(C(=O)OC)c1 [AMA-9c]	complete chemoselectivity	–
C#CCOCCOCCOCCNC(=O)c1cc(C(=O)/C=C/C(N)=O)cc(C(=O)OC)c1 [compound 6]	–	over 95%
